# Test results published in the supplement of paper PMC12823440, “Inhibitors supercharge kinase turnover through native proteolytic circuits” (Nature, 2025).
# Sequences of proteins named here, by UniProt entry; tags and fusion partners are left off. A change or cut given only in a name is not applied to a line headed by its entry.
# UniProt P07949, whole entry, looked up: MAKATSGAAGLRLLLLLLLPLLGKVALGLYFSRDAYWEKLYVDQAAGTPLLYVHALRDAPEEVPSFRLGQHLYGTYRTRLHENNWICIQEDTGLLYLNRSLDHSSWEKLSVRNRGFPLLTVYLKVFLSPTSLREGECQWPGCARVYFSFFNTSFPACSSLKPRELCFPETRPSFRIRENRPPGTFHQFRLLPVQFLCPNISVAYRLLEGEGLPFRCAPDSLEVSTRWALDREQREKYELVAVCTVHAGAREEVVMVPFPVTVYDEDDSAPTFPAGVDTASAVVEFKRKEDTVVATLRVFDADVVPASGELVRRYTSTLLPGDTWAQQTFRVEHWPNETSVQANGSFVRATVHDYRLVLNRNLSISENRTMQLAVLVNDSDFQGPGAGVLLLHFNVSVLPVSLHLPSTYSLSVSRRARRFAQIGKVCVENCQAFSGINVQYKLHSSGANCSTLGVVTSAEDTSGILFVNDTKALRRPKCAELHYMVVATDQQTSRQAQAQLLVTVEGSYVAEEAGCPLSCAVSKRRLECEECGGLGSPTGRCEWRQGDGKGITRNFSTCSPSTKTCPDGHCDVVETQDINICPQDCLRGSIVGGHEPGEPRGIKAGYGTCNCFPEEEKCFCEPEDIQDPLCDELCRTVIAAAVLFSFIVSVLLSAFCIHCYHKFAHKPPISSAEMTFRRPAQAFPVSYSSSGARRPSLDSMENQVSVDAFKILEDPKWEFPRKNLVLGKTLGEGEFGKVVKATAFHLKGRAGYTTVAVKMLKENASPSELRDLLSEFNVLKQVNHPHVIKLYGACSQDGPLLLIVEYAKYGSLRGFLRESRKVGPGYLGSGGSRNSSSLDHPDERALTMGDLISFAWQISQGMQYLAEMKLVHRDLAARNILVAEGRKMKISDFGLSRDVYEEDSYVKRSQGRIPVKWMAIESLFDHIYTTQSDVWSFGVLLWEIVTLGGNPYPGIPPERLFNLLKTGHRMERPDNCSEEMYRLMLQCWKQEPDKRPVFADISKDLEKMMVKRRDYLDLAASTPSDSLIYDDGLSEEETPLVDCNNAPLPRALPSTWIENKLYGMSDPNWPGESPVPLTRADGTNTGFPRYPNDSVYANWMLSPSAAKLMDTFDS
# UniProt P07949, whole entry M918T, looked up: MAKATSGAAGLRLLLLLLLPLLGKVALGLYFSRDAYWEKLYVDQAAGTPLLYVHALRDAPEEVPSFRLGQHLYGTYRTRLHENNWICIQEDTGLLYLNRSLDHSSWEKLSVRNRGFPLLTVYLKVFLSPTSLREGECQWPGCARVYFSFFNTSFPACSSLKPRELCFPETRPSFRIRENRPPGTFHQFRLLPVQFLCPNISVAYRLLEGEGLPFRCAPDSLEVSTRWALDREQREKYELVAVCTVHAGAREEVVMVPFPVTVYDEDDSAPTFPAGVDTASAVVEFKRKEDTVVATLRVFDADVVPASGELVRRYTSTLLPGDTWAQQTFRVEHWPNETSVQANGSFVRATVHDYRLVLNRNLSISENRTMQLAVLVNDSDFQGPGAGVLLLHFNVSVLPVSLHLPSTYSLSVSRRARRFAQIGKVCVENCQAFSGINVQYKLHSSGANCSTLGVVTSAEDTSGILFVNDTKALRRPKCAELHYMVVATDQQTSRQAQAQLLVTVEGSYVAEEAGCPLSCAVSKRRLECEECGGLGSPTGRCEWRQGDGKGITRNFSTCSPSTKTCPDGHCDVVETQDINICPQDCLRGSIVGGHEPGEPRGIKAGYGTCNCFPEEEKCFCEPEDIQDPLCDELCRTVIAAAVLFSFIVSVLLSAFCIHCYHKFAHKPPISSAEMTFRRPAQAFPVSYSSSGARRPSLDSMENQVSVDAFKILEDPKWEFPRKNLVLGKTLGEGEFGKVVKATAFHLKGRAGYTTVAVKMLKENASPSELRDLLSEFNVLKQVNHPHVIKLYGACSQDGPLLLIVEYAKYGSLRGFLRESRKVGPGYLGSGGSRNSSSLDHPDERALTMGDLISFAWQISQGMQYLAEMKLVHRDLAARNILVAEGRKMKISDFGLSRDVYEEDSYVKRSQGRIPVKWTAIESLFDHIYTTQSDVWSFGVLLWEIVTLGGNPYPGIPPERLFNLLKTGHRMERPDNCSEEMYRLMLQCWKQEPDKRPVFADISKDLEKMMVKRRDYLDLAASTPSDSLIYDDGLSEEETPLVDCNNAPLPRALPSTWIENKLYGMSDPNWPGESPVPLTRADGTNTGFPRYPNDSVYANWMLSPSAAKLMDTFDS
# UniProt Q13546: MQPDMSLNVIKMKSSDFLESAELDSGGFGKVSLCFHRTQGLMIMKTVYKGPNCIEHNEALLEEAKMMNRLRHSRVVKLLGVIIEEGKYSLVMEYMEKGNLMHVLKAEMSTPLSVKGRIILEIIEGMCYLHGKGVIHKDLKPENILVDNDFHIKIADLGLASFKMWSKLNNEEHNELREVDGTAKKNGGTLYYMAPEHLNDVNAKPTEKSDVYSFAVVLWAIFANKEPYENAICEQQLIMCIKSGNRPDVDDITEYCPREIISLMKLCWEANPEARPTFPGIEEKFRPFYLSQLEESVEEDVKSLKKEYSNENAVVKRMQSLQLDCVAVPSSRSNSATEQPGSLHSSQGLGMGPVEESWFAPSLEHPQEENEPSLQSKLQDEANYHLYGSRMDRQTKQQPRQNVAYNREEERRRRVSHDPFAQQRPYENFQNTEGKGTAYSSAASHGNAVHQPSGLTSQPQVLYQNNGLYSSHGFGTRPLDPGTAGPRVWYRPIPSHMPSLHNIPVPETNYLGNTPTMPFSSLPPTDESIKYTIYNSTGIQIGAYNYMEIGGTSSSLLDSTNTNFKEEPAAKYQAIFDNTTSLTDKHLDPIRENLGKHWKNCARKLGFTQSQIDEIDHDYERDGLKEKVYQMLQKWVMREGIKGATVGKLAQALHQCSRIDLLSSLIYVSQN
# UniProt Q15418, whole entry: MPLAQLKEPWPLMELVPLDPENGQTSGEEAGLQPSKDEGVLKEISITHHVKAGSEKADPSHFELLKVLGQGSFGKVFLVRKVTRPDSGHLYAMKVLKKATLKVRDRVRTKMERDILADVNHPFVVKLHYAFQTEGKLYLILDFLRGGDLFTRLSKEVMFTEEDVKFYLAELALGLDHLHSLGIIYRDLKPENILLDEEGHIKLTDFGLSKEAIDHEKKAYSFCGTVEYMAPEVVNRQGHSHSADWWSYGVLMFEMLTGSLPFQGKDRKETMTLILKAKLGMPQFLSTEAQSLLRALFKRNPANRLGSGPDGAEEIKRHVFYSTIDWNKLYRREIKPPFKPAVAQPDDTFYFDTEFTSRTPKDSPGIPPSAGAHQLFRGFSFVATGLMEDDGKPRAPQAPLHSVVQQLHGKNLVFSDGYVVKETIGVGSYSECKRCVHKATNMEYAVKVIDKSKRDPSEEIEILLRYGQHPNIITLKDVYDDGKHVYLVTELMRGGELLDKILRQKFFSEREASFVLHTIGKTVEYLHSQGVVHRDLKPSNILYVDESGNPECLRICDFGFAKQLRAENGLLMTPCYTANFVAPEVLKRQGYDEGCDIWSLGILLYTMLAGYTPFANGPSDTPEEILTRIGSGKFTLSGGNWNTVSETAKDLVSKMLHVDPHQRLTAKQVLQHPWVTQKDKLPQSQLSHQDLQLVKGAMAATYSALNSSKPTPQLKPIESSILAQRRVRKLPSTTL
# UniProt Q9NYA1, whole entry: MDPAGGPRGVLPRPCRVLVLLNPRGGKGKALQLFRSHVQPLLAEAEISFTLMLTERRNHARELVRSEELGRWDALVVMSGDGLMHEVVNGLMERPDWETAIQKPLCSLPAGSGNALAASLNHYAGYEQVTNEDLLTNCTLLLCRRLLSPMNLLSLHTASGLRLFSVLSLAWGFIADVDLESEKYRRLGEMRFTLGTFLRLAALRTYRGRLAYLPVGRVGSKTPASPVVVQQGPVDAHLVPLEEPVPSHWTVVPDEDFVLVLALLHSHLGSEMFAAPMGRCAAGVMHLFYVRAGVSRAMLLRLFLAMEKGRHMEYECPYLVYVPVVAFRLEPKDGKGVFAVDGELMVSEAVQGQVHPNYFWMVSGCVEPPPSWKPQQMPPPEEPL
# UniProt Q9Y6E0: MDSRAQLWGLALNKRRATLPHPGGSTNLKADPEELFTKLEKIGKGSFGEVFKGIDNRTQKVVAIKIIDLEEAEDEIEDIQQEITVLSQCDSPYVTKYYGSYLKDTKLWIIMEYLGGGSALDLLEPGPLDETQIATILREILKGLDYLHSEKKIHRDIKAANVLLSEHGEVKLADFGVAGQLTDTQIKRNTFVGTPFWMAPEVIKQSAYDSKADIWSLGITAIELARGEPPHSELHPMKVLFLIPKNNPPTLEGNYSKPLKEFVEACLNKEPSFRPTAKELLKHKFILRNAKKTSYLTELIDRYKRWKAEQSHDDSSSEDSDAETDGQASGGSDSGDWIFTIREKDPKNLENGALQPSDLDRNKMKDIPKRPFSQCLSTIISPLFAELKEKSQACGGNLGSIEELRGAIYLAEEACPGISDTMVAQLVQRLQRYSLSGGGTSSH
# UniProt Q15208: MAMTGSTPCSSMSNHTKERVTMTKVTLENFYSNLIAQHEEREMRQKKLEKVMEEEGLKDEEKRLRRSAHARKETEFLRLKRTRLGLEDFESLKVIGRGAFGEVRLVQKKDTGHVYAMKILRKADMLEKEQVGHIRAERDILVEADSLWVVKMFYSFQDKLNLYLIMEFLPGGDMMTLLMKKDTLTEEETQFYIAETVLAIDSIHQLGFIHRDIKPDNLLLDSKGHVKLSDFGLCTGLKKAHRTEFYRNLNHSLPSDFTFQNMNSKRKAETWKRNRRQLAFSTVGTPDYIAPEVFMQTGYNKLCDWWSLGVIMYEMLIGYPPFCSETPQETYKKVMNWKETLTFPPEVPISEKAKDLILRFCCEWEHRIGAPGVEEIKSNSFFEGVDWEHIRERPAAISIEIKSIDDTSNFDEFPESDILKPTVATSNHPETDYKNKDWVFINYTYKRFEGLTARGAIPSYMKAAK
# UniProt P29597: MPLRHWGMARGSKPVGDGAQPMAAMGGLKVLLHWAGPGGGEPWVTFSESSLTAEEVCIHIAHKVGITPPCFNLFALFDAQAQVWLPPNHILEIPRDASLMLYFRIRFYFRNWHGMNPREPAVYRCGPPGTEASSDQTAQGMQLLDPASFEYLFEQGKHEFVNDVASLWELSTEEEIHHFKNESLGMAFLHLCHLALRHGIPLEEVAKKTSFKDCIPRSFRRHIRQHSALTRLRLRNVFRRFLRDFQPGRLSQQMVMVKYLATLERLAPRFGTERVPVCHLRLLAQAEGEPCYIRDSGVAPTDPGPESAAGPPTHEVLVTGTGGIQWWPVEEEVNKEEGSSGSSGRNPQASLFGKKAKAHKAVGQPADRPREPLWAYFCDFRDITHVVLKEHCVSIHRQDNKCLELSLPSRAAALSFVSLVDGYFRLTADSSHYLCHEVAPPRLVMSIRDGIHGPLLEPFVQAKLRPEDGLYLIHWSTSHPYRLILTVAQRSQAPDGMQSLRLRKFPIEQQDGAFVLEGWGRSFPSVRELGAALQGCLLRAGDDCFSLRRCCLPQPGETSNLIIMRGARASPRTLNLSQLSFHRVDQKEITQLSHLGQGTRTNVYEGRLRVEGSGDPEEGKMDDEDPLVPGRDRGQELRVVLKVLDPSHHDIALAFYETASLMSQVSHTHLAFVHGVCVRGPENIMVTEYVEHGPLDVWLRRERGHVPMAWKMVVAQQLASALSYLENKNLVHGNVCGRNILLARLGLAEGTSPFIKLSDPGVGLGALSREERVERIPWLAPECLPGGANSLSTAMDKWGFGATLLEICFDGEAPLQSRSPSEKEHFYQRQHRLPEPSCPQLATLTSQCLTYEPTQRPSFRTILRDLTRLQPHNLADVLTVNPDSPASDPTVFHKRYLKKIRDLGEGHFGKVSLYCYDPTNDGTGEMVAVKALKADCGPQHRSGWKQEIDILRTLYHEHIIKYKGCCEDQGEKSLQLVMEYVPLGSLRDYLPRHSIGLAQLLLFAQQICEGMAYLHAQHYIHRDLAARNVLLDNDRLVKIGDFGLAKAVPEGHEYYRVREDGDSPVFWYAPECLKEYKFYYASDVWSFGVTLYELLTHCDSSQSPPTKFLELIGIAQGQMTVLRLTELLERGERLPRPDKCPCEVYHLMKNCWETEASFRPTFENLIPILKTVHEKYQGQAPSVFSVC
# UniProt P31749: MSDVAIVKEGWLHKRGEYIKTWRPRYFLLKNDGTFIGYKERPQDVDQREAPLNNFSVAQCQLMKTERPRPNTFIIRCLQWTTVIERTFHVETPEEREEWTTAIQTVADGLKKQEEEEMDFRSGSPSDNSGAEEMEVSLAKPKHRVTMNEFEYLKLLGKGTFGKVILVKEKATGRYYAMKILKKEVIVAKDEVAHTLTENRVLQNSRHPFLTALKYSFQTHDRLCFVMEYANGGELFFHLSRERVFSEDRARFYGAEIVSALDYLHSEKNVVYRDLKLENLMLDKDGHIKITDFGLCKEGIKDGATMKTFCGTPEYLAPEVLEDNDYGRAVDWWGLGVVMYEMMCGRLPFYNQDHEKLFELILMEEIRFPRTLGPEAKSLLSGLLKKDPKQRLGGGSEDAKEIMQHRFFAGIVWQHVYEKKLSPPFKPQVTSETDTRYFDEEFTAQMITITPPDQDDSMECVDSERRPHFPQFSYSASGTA
# This is one part of the list. The calls rarely recur for the same compound in another form.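 In K562 cells expressing nanoluciferase-fused kinases, luminescence was recorded at 4 h intervals between 2 and 18 h, normalized as percent of control with DMSO at 100% and a positive control at 0%. A significant (2 sigma) signal drop marks a time point as decreased. The authors' rule for a hit is not shown and takes in more than the number of time points.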
# How the values were obtained:
# Details in all cases: K562; 2-18 h
# RET = RET (UniProt P07949); assay: kinase-Nluc reporter destabilization hit call (1 = scored as downregulated) (binary); higher = compound decreases kinase abundance
# [1] = biological target: RET_M918T (clone: RET_mut) (UniProt P07949); assay: as above
# RIOK1 = RIOK1 (UniProt Q9BRS2); assay: as above
# RIPK1 = RIPK1 (UniProt Q13546); assay: as above
# RIPK2 = RIPK2 (UniProt O43353); assay: as above
# ROR2 = ROR2 (UniProt Q01974); assay: as above
# RPS6KA1 = RPS6KA1 (UniProt Q15418); assay: as above
# SPHK1 = SPHK1 (UniProt Q9NYA1); assay: as above
# SRC = SRC (UniProt P12931); assay: as above
# STK24 = STK24 (UniProt Q9Y6E0); assay: as above
# STK38 = STK38 (UniProt Q15208); assay: as above
# SYK = SYK (UniProt P43405); assay: as above
# TEC = TEC (UniProt P42680); assay: as above
# TYK2 = TYK2 (UniProt P29597); assay: as above
# ULK3 = ULK3 (UniProt Q6PHR2); assay: as above
# YES1 = YES1 (UniProt P07947); assay: as above
# ZAK = ZAK (UniProt Q9NYL2); assay: as above
# ZAP70 = ZAP70 (UniProt P43403); assay: as above
# ABL1 = ABL1 (UniProt P00519); assay: number of time points (of 5) at which kinase-Nluc abundance scored as decreased, DMSO-normalised (count); higher = more persistent destabilization
# AKT1 = AKT1 (UniProt P31749); assay: as above
Structure (SMILES),kinase-Nluc reporter destabilization hit call (RET),kinase-Nluc reporter destabilization hit call [1],kinase-Nluc reporter destabilization hit call (RIOK1),kinase-Nluc reporter destabilization hit call (RIPK1),kinase-Nluc reporter destabilization hit call (RIPK2),kinase-Nluc reporter destabilization hit call (ROR2),kinase-Nluc reporter destabilization hit call (RPS6KA1),kinase-Nluc reporter destabilization hit call (SPHK1),kinase-Nluc reporter destabilization hit call (SRC),kinase-Nluc reporter destabilization hit call (STK24),kinase-Nluc reporter destabilization hit call (STK38),kinase-Nluc reporter destabilization hit call (SYK),kinase-Nluc reporter destabilization hit call (TEC),kinase-Nluc reporter destabilization hit call (TYK2),kinase-Nluc reporter destabilization hit call (ULK3),kinase-Nluc reporter destabilization hit call (YES1),kinase-Nluc reporter destabilization hit call (ZAK),kinase-Nluc reporter destabilization hit call (ZAP70),number of time points (ABL1),number of time points (AKT1)
Cc1c(C)c(NCC(=O)N(C)C2CCN(Cc3ccc(C(N)=O)cc3)CC2)c(C)c(C)c1N (10 µM),inactive: 0,inactive: 0,inactive: 0,inactive: 0,inactive: 0,inactive: 0,inactive: 0,inactive: 0,inactive: 0,inactive: 0,inactive: 0,inactive: 0,inactive: 0,inactive: 0,inactive: 0,inactive: 0,inactive: 0,inactive: 0,0,0
COc1cc2nccc(Oc3ccc(NC(=O)c4cn(C(C)C)c(=O)n(-c5ccc(F)cc5)c4=O)cc3F)c2cc1OC (0.5 µM),inactive: 0,inactive: 0,inactive: 0,inactive: 0,inactive: 0,inactive: 0,inactive: 0,inactive: 0,inactive: 0,inactive: 0,inactive: 0,inactive: 0,inactive: 0,inactive: 0,inactive: 0,inactive: 0,inactive: 0,inactive: 0,4,1
COc1cc2c(cc1Nc1ncc(C(N)=O)c(Nc3c(F)cccc3C(F)(F)F)n1)CN(C)CC2 (2.5 µM),inactive: 0,inactive: 0,inactive: 0,inactive: 0,inactive: 0,inactive: 0,inactive: 0,inactive: 0,inactive: 0,inactive: 0,inactive: 0,inactive: 0,inactive: 0,inactive: 0,inactive: 0,inactive: 0,inactive: 0,inactive: 0,0,0
Oc1c(F)cc(-c2cnccc2-c2ccc(N3CCOCC3)cc2)cc1F (10 µM),inactive: 0,inactive: 0,inactive: 0,inactive: 0,inactive: 0,inactive: 0,inactive: 0,inactive: 0,inactive: 0,inactive: 0,inactive: 0,inactive: 0,inactive: 0,inactive: 0,inactive: 0,inactive: 0,inactive: 0,inactive: 0,0,0
COc1cc2ncnc(Nc3cccc(I)c3)c2cc1OC (2.5 µM),inactive: 0,inactive: 0,inactive: 0,inactive: 0,inactive: 0,inactive: 0,inactive: 0,inactive: 0,inactive: 0,inactive: 0,inactive: 0,inactive: 0,inactive: 0,inactive: 0,inactive: 0,inactive: 0,inactive: 0,inactive: 0,0,0
Cc1cccc(/C=N/Nc2cc(N3CCOCC3)n3nc(-c4ccncc4)cc3n2)c1 (10 µM),inactive: 0,inactive: 0,inactive: 0,inactive: 0,inactive: 0,inactive: 0,inactive: 0,inactive: 0,inactive: 0,inactive: 0,inactive: 0,inactive: 0,inactive: 0,inactive: 0,inactive: 0,inactive: 0,inactive: 0,inactive: 0,1,0
COc1ccc(-c2cc(=O)c3c(OC)cc(OC)c(OC)c3o2)cc1 [6-Demethoxytangeretin] (10 µM),inactive: 0,inactive: 0,inactive: 0,inactive: 0,inactive: 0,inactive: 0,inactive: 0,inactive: 0,inactive: 0,inactive: 0,inactive: 0,inactive: 0,inactive: 0,inactive: 0,inactive: 0,inactive: 0,inactive: 0,inactive: 0,0,0
COc1cc(-c2oc3cc(O)cc(O)c3c(=O)c2O)ccc1O [Isorhamnetin] (10 µM),inactive: 0,inactive: 0,inactive: 0,inactive: 0,inactive: 0,inactive: 0,inactive: 0,inactive: 0,inactive: 0,inactive: 0,inactive: 0,inactive: 0,inactive: 0,inactive: 0,inactive: 0,inactive: 0,inactive: 0,inactive: 0,0,0
